Experimental data as given in paper PMC4741960.
These are yes or no findings as the source states them, for the method shown. Binding seen in cells or lysates may run through a third protein. Some results given as binding are weak or reduced against the parent protein; the word gives no strength. For some of these results: Tags and fused reporters may be left off the sequences shown.

Protein sequences, listed by entry. Tags and fused reporters are not part of them.
UniProt O75317: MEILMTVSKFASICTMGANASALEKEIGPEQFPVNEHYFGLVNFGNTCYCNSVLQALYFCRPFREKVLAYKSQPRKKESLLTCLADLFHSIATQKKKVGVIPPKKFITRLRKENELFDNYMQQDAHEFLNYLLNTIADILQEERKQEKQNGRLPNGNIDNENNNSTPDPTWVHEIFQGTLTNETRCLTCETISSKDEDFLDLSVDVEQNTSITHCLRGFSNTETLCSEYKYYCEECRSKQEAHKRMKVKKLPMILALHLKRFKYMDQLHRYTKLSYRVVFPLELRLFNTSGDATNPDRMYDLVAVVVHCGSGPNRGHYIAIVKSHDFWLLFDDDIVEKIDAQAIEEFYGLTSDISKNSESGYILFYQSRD
UniProt P10275: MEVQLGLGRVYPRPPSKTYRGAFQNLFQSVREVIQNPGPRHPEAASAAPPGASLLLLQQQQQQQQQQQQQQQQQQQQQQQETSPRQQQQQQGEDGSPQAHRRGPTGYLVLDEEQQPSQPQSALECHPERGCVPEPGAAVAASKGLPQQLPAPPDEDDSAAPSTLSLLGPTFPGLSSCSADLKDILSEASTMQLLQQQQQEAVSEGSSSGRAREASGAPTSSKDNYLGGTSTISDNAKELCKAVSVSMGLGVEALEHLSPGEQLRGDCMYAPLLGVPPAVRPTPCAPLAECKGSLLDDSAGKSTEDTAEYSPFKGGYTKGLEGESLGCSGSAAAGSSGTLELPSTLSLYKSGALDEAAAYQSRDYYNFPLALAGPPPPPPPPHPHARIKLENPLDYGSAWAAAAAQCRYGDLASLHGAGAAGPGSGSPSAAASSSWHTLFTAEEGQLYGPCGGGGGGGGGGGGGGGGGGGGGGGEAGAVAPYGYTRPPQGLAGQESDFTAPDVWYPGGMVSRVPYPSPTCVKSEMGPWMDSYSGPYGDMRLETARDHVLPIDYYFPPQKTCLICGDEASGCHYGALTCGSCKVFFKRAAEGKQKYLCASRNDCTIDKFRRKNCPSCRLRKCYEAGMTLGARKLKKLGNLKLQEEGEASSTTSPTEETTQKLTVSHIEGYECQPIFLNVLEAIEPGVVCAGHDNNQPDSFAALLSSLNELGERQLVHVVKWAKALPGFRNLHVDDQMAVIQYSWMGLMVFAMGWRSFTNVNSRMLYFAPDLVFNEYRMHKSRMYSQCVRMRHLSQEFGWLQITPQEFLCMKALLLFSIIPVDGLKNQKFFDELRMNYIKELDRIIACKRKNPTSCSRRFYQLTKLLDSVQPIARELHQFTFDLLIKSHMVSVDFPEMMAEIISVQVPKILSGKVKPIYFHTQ
UniProt Q8TAF3: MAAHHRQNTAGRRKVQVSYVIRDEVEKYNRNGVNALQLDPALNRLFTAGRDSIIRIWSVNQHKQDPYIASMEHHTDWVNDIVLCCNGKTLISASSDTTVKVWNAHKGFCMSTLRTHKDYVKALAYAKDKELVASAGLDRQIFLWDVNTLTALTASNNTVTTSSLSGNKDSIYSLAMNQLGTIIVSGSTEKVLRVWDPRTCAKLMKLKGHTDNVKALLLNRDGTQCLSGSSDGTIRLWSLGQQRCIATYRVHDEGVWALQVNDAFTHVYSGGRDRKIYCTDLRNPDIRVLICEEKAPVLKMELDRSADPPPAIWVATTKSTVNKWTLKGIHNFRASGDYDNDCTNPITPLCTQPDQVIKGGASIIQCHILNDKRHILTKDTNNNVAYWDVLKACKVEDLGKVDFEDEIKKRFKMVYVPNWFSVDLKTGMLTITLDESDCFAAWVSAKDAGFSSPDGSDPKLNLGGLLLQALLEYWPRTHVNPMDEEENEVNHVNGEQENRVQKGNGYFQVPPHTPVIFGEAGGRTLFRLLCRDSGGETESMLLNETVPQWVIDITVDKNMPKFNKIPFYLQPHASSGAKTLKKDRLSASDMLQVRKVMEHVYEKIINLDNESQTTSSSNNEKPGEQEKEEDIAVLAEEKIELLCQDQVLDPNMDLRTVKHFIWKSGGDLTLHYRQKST

Assays:
[1] = target: Endogenous Usp12 (human (endogenous in LNCaP and VCaP)) (UniProt O75317); experiment: co-IP; endogenous Usp12 immunoprecipitated from LNCaP cells; probed for Uaf-1 and WDR20 by immunoblotting; IgG as negative control
[2] = target: Endogenous androgen receptor (human (endogenous in VCaP)) (UniProt P10275); experiment: co-IP; VCaP cells cultured in full media or steroid depleted media for 96 h; endogenous AR immunoprecipitated with 1 ug anti-AR antibody or IgG control; immunoblotting
[3] = target: T1, HA-Flag-WDR20 (UniProt Q8TBZ3); experiment: co-IP; cells (COS-7 by the legend, HEK293T by the text) transfected with pFlag-AR and pHA-Flag-WDR20, 48 h; immunoprecipitation for WDR20 or IgG control; immunoblotting
T1 sequence: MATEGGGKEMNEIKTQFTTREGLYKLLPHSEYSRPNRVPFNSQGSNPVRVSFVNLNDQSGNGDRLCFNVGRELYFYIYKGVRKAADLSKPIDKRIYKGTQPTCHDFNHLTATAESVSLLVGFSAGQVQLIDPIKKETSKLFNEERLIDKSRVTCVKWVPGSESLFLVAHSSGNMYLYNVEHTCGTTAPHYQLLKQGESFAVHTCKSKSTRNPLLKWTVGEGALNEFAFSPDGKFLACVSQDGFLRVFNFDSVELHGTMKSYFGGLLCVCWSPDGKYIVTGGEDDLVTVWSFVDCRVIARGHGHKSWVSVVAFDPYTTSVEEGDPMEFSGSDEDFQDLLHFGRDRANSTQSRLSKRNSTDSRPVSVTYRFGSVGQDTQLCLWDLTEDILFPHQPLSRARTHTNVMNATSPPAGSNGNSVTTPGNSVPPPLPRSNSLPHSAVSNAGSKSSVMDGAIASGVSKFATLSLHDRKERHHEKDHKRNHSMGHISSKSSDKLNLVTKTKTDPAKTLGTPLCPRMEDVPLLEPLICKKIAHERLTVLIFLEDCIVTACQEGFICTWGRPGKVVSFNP

[4] = target: T1, HA-Flag-WDR20; experiment: co-IP; HEK293T cells transfected with pHA-Flag-WDR20, pFlag-Uaf-1 and pFlag-Usp12, 48 h; exogenous WDR20 immunoprecipitated with 1 ug anti-HA antibody; immunoblotting

| Molecule | binding [1] | binding [2] | binding [3] | binding [4] |
| --- | --- | --- | --- | --- |
| Endogenous Uaf-1 (from UniProt Q8TAF3 1-677) | binds | binds | – | – |
| Endogenous Usp12 (from UniProt O75317 1-370) (enzyme) | – | binds | – | – |
| Flag-AR (from UniProt P10275 1-920) (receptor) | – | – | binds | – |
| Flag-Usp12 (from UniProt O75317 1-370) (enzyme) | – | – | – | binds |
| Endogenous WDR20 (protein, UniProt Q8TBZ3 1-569) MATEGGGKEMNEIKTQFTTREGLYKLLPHSEYSRPNRVPFNSQGSNPVRVSFVNLNDQSGNGDRLCFNVGRELYFYIYKGVRKAADLSKPIDKRIYKGTQPTCHDFNHLTATAESVSLLVGFSAGQVQLIDPIKKETSKLFNEERLIDKSRVTCVKWVPGSESLFLVAHSSGNMYLYNVEHTCGTTAPHYQLLKQGESFAVHTCKSKSTRNPLLKWTVGEGALNEFAFSPDGKFLACVSQDGFLRVFNFDSVELHGTMKSYFGGLLCVCWSPDGKYIVTGGEDDLVTVWSFVDCRVIARGHGHKSWVSVVAFDPYTTSVEEGDPMEFSGSDEDFQDLLHFGRDRANSTQSRLSKRNSTDSRPVSVTYRFGSVGQDTQLCLWDLTEDILFPHQPLSRARTHTNVMNATSPPAGSNGNSVTTPGNSVPPPLPRSNSLPHSAVSNAGSKSSVMDGAIASGVSKFATLSLHDRKERHHEKDHKRNHSMGHISSKSSDKLNLVTKTKTDPAKTLGTPLCPRMEDVPLLEPLICKKIAHERLTVLIFLEDCIVTACQEGFICTWGRPGKVVSFNP | binds | binds | – | – |
